No constants are given. Whether binding was seen depends on the method and setting. In cells and extracts the contact can be indirect. For some assays here: A result given as binding can be weak or reduced; the word gives no strength. Tags and fused reporters may be left off the sequences shown.
Legend:
mCherry-4.1G(ΔCTD) = experiment: co-IP; extracts of co-transfected HEK293 cells in IP Lysis/Wash Buffer (0.025 M Tris, 0.15 M NaCl, 0.001 M EDTA, 1% NP40, 5% glycerol, pH 7.4); RFP-Trap (anti-mCherry) magnetic agarose beads overnight at 4°C; blots with anti-GFP and anti-mCherry
Mem-mCherry-4.1G(CTD) = experiment: as above

binding (mCherry-4.1G(ΔCTD)): no binding | binding (Mem-mCherry-4.1G(CTD)): binds
B1: TMEM24-eGFP (protein, UniProt O14523 1-706)
chain: MDPGWGQRDVGWAALLILFAASLLTVFAWLLQYARGLWLARARGDRGPGPALAGEPAGSLRELGVWRSLLRLRATRAGAAEEPGVRGLLASLFAFKSFRENWQRAWVRALNEQACRNGSSIQIAFEEVPQLPPRASISHVTCVDQSEHTMVLRCQLSAEEVRFPVSVTQQSPAAVSMETYHVTLTLPPTQLEVNLEEIPGEGLLISWAFTDRPDLSLTVLPKLQARERGEEQVELSTIEELIKDAIVSTQPAMMVNLRACSAPGGLVPSEKPPMMPQAQPAIPRPNRLFLRQLRASHLGNELEGTEELCCVAELDNPMQQKWTKPARAGSEVEWTEDLALDLGPQSRELTLKVLRSSSCGDTELLGQATLPVGSPSRPLSRRQLCPLTPGPGKALGPAATMAVELHYEEGSPRNLGTPTSSTPRPSITPTKKIELDRTIMPDGTIVTTVTTVQSRPRIDGKLDSPSRSPSKVEVTEKTTTVLSESSGPSNTSHSSSRDSHLSNGLDPVAETAIRQLTEPSGRVAKKTPTKRSTLIISGVSKVPIAQDELALSLGYAASLEASVQDDAGTSGGPSSPPSDPPAMSPGPLDALSSPTSVQEADETTRSDISERPSVDDIESETGSTGALETRSLKDHKVSFLRSGTKLIFRRRPRQKEAGLSQSHDDLSNATATPSVRKKAGSFSRRLIKRFSFKSKPKANGNPSPQL
